Data from paper PMC12785316.
No constants are given. Whether binding was seen depends on the method and setting. Binding seen in cells or lysates may run through a third protein. Here binding means that the protein was enriched with, or labelled near, the bait; the list need not be complete. Tags and fused reporters may be left off the sequences shown.

T1: PoSnf1 (Penicillium oxalicum Snf1 kinase, catalytic alpha subunit of the Snf1 kinase complex) with C-terminal HA-FLAG tag (Penicillium oxalicum) (UniProt S7ZEF0)
T1 sequence: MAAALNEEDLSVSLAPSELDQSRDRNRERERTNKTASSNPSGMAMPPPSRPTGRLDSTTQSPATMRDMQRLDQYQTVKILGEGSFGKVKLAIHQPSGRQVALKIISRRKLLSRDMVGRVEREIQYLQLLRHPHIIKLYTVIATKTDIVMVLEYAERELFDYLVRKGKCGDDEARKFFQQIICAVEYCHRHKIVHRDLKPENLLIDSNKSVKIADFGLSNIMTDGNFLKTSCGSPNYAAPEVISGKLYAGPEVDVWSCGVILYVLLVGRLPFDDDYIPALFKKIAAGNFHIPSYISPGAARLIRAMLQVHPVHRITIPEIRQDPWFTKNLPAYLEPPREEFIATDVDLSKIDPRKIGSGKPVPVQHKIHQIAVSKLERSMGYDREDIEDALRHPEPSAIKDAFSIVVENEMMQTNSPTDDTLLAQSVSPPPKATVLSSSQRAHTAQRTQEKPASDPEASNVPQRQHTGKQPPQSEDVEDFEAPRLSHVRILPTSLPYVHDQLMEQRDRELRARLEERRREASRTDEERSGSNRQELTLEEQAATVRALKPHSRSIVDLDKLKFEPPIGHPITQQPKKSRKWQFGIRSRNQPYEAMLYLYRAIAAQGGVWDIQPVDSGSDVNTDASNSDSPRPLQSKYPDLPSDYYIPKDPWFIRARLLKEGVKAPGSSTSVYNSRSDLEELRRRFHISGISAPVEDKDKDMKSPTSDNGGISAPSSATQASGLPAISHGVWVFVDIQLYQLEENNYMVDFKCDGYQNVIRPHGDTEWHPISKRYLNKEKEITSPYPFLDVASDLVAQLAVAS

B1: PoSnf4 (gamma subunit of the Snf1 kinase complex), endogenous (protein, UniProt S7ZPW3 1-357)
chain: MTKAEDTRPHLAGPLNSIGHAPFVQPSSYLRPPMSSQSERPIDVEERQGLRAIRNFLKVRTSYDVLPLSFRLIIFDTGLSVKESLNILIQNGIVSAPLWDSKASKFAGLLTTSDYINVIQYYFQNPAALDQIDQFRLDSLREVEKALGVAPPETISIDPERPLYEACRRMLESRARRIPLVTNDSQTDRSHVLSVITQYRILKFVAVNVGDTQKLRRPLGELLLGTYNNIATASMDTPVIDVIHILVERSISSVPILNSEGVVYNVFEAVDVIALIRGGVYDDLSLTVGEVLKKRSPEFPGIYTCSLNDGLDTIFDTIRKSRVHRLVVVDEHFKLKGVLTLSDILHYILLEGETDEV
B2: PoGal83 (beta subunit of the Snf1 kinase complex), endogenous (protein, UniProt S8AWH1 1-447)
chain: MGNNPSKGPSGDGPDGHVHHGSAERKVARRTSLNAMRHQKATAADPSATRETAAGHPANYQGSPSHRRHSRNPPHSPGRSMSKPSGPDGRLQDYAQGRKSLPEDQSNPMQVPSARQGAGRDPVAPSGPPLSSYYSASQHLQRPPRMPLPIGDATTTPGSPISGPEDSHIQSMPADQLLKEQLEKGVSNLSSVTLDGEEIVDELPSYASSGVGKAVPTYIEWSGPGQKVYVTGTFVNWEKKFKLHRGDGENATMSTTLNLRPGTHHLKFIVDGEMRASDTLPTAVDFTNHLVNYIEISADDRQDSIPSGIQASQTVSDNVNNDETTDEPQNKEPEEEVPPGNFGRAIPQFLADLDKEEDSTAYIQAANVISDTPTPPSLPLFLGKSILNSNTPTKDDSSVLNYPNHTVLNHLATSSIKNGVLATSVTTRYKRKYVTSILYKPTGDIAE
B3: PDE_02615 (uncharacterized protein), endogenous (protein, UniProt S7ZG90 1-128)
chain: MGVFLFGKPQRATPLGNRGLAEMLRFLGMVRRPEIAREGHHYRVIIICSVIPRAWKTGGWLRERKRRDARCNGGAQRKSGGVSSAQLAPDRSKSQRFKFAERMRFHLGSTGRNAGQAYWAKQIQNDGE

Molecular target: T1, PoSnf1 (Penicillium oxalicum Snf1 kinase, catalytic alpha subunit of the Snf1 kinase complex) with C-terminal HA-FLAG tag (Penicillium oxalicum)
Experiment: affinity purification with mass spectrometry; tandem affinity purification from mycelial lysate of the Snf1-TAP strain grown in VMMG: ANTI-FLAG M2 resin overnight at 4 °C, elution with 3×FLAG peptide, then ANTI-HA resin, elution with 8 M urea; LC-MS/MS; untagged WT as control, two biological replicates

| binding | Binder |
| --- | --- |
| binds | B1 |
| binds | B2 |
| binds | B3 |
